Changes are numbered by the printed parent chain. No constants are given. Whether binding was seen depends on the method and setting. Some entries that bind do so weakly or less than the wild type.
B1: 3heptad-F (cap) (designed binder)
chain: ASMTGGQQMGRDPGGGLARNNIAVRKSRDKAKQRNVELEQEVLELESRNDRLRKEVEQLERELDTLRGIFRQLPESSLVKAMGNCA
B2: 3heptad-F (cap, e g) (designed binder)
chain: B1 chain with N20E, R25E, S27E, K32E, R34E
B3: 3heptad-F (cap, a d) (designed binder)
chain: B1 chain with V24L, R28A, A31L
B4: 3heptad-F (cap, b d) (designed binder)
chain: B1 chain with I22E, A23E, D29E, K30E, V36A
B5: 2heptad-F (designed binder)
chain: ASMTGGQQMGRDPGGGLEKEAEELEQENAELEQEVLELESRNDRLRKEVEQLERELDTLRGIFRQLPESSLVKAMGNCA
B6: 3heptad-F (designed binder)
chain: ASMTGGQQMGRDPGGGLARENEELEKEAEELEQENAELEQEVLELESRNDRLRKEVEQLERELDTLRGIFRQLPESSLVKAMGNCA
B7: 4heptad-F (designed binder)
chain: ASMTGGQQMGRDPGGGLEQRAEELARENEELEKEAEELEQENAELEQEVLELESRNDRLRKEVEQLERELDTLRGIFRQLPESSLVKAMGNCA
B8: 1heptad-F (designed binder)
chain: ASMTGGQQMGRDPGGGLEQENAELEQEVLELESRNDRLRKEVEQLERELDTLRGIFRQLPESSLVKAMGNCA
B9: 0heptad-F (F zipper with the basic region deleted) (designed binder)
chain: ASMTGGQQMGRDPGGGTQQEVLELESRNDRLRKEVEQLERELDTLRGIFRQLPESSLVKAMGNCA

Target: C/EBP bZIP domain (GCN4-C/EBP chimeric protein) (C/EBP: rat liver; GCN4: yeast)
Test: heterodimer stability of four mutant proteins

| binding | Binder |
| --- | --- |
| binds | B1 |
| binds | B2 |
| binds | B3 |
| binds | B4 |

Target: C/EBP bZIP domain (GCN4-C/EBP chimeric protein) (C/EBP: rat liver; GCN4: yeast)
Test: CD thermal melting curves at 222 nm (FIG. 13B)

| binding | Binder |
| --- | --- |
| binds | B5 |
| binds | B6 |
| binds | B7 |
| binds | B8 |
| binds | B9 |

Target: C/EBP bZIP domain (GCN4-C/EBP chimeric protein) (C/EBP: rat liver; GCN4: yeast)
Test: CD thermal melts

| binding | Binder |
| --- | --- |
| binds | B5 |
| binds | B6 |
| binds | B7 |
| binds | B8 |
| binds | B9 |

Target: C/EBP bZIP domain (GCN4-C/EBP chimeric protein) (C/EBP: rat liver; GCN4: yeast)
Test: summary of thermal stability and competition assays

| binding | Binder |
| --- | --- |
| binds | B6 |

Target: C/EBP bZIP domain (GCN4-C/EBP chimeric protein) (C/EBP: rat liver; GCN4: yeast)
Test: sedimentation equilibrium, equimolar mixture

| binding | Binder |
| --- | --- |
| binds | B6 |

From patent US6361968
